Primary screen of a compound library

The chains behind the UniProt entries cited, without tags or fusion partners. Residues count along the entry.
UniProt I6X8D2, whole entry: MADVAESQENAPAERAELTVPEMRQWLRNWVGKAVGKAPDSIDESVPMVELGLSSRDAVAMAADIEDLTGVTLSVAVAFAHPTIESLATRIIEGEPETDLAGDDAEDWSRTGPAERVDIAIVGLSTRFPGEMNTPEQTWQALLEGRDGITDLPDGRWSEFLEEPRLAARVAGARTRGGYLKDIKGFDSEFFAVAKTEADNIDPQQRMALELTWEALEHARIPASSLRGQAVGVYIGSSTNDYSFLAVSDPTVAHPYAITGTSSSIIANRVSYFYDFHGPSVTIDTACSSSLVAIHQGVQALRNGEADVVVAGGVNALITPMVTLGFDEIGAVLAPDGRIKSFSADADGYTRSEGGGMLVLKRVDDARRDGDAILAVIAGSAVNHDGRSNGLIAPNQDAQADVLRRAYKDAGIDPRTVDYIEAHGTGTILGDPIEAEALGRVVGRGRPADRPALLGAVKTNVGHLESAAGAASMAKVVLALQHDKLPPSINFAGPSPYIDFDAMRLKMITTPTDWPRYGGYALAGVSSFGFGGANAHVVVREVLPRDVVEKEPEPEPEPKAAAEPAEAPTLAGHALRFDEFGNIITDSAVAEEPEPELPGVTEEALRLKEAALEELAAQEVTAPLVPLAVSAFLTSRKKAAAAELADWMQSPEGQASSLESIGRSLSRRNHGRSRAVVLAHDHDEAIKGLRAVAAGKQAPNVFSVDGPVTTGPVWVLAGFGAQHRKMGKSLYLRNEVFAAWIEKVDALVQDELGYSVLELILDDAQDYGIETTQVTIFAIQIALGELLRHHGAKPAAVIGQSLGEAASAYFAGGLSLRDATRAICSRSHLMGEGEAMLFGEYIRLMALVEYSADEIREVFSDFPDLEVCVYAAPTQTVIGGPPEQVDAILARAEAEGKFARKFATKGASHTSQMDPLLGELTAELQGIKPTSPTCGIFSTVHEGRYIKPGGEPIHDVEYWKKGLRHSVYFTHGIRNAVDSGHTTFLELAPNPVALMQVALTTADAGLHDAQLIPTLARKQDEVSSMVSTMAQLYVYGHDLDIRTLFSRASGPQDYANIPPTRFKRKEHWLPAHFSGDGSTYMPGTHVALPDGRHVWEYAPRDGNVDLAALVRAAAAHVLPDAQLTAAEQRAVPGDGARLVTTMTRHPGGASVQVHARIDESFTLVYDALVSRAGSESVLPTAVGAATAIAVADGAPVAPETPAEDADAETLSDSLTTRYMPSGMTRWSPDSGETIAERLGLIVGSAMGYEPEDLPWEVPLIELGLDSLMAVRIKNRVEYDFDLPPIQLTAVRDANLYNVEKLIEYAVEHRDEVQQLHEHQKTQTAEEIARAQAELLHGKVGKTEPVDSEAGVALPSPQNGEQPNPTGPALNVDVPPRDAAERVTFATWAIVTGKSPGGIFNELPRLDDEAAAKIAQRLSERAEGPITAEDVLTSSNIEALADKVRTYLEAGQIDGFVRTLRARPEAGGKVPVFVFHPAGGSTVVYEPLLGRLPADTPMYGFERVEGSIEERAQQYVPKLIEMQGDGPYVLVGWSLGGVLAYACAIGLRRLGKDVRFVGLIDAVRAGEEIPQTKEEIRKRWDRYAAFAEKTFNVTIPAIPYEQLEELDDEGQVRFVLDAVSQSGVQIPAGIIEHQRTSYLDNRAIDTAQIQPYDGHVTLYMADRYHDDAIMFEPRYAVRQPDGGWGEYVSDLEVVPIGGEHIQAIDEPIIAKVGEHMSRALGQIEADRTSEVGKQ
UniProt A4I591, 1-473: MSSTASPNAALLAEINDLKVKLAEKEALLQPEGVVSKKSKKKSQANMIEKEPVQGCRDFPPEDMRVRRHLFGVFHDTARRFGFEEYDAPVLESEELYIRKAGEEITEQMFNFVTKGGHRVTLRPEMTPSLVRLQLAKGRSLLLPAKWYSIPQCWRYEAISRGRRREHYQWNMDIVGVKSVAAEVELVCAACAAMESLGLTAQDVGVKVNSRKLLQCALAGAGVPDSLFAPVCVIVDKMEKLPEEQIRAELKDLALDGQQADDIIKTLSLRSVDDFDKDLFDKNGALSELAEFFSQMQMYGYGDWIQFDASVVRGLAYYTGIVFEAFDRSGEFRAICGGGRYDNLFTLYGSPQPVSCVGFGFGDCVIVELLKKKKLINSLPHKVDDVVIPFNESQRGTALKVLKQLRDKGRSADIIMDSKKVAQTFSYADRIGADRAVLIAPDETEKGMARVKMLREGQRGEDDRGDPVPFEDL
UniProt P9WNZ1, whole entry: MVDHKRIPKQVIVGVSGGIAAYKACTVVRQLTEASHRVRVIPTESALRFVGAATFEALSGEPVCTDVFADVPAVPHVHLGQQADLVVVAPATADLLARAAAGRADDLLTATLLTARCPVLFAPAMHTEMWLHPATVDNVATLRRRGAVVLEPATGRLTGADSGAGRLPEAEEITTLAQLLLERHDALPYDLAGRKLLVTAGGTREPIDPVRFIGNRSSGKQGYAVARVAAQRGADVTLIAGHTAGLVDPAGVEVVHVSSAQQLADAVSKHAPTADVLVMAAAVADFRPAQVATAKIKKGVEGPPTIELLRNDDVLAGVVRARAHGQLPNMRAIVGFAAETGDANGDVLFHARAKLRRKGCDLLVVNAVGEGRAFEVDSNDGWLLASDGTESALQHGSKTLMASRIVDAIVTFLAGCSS

The values are deposited in ChEMBL (CHEMBL3988442, “University of Dundee, Small-Polar-MMV Screening Library” (2021)).

Pks13 thioesterase: 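Polyketide synthase Pks13, Mycobacterium tuberculosis (UniProt I6X8D2). Enzyme assay of the thioesterase domain of polyketide synthase 13; the read-out is not stated. Concentration: 30 µM. Higher reads as stronger inhibition (inferred from which compounds were picked for retests). Of about 67,000 compounds tested this way, about 300 (0.46%) reached 50% or more in at least one test.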
LiHisRS: 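Enzyme assay of histidyl-tRNA synthetase; the read-out is not stated. Target: Histidine-tRNA ligase, Leishmania infantum (UniProt A4I591). Compounds at 30 µM. Higher reads as stronger inhibition (inferred: compounds with an IC50 in retests scored well above the rest). The assay is labelled LdHisRS but filed under L. infantum. About 69,000 compounds were tested under these conditions; 0.6% (about 410) showed 50% or more at least once.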
CoaBC: 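Enzyme assay of CoaBC with a phosphate dye (Biomol Green) read at 650 nm. Target: Coenzyme A biosynthesis protein CoaBC, Mycobacterium tuberculosis (UniProt P9WNZ1). Compounds at 30 µM. Higher reads as stronger inhibition, judged from the few compounds that gave an IC50. Most strong results did not repeat in a second test. About 67,000 compounds were tested under these conditions; 0.06% (about 40) showed 50% or more at least once.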

Results are given as percent effect. The record does not define 0% and 100%; most values in the screen are far below 50% and negative numbers occur (in some assays of this library far below -100). Compounds were drawn at random from those tested, without regard to their results. Two or more numbers in one place are separate tests of the same structure; such repeats can differ widely. A dash means the value is not listed here; it may have been measured.

compound	Pks13 thioesterase	LiHisRS	CoaBC
Cc1ccsc1C(CNC(=O)c1cc(=O)[nH]c(=O)[nH]1)N(C)C (configuration not stated)	-2.159%	5%	6.184%
CC(C)c1nccn1C1CCCN(C(=O)c2cccc3[nH]ncc23)C1 (configuration not stated)	-16.96%	3.306%	1.08%
CN(C)CC(=O)N1C[C@@H](Oc2ccccn2)[C@H]2OCCC[C@H]21	-14.18%	11.5%	12.84%
Cc1nc(C2CCCN(C(=O)COCc3ccccc3)C2)no1 (configuration not stated)	-18.96%	10.34%	8.094%
Cc1nc(CNC(=O)NC2CCN(c3ncccc3Cl)C2)oc1C (configuration not stated)	-3.616%	19.35%	-1.229%
CC(C#N)CNC(=O)Nc1ccc(Br)cc1 (configuration not stated)	-40.51%	15.49%	-
Cc1nc2n(n1)CC(NCc1nc(-c3cccs3)no1)CC2 (configuration not stated)	-33.74%	29.58%	-
CCCN1CCC(Cc2nc(CN3CCN(C)CC3)no2)CC1	-34.18%	13.68%	-33.76%
COc1cc(C(=O)NC2COc3ccccc3C2)ccc1OCC(N)=O (configuration not stated)	-13.02%	13.33%	2.233%
Cc1ccc(C2(O)CCN(C(=O)c3sccc3S(N)(=O)=O)CC2)nc1	-14.3%	20.65%	2.058%
COc1ccccc1C(=O)N1CCCC1c1nncn1CC(C)C (configuration not stated)	-23.34%	18.31%	14.19%
CC(c1ccccc1)N(C)C(=O)CN1CCN(c2cnccn2)CC1 (configuration not stated)	1.305%	14%	2.475%
Cn1cnn(Cc2ccccc2F)c1=O	-	17.65%	-0.813%
COCCC1COC2(CCN(C(=O)CC3CCCC3)CC2)C1 (configuration not stated)	0.5955%	15.79%	3.462%
Fc1ccc2[nH]c([C@H]3CCN(C4CCOCC4)C3)nc2c1	-2.592%	22.22%	5.192%
C[C@@H]1CN(C(=O)c2cc(Cn3ccc4ccccc43)[nH]n2)C[C@H](C)O1	-6.993%	20%	2.538%
COc1c(F)cc(-c2cn(CCn3c(C)cc(C)nc3=O)nn2)cc1Cl	3.933%	11.57%	7.991%
Cc1cnccc1-c1cc(NCCO)nc2[nH]ccc12	15.58%	21.43%	2.254%
O=C(c1ccnc(C2CCNCC2)c1)N1CCCC(CO)C1 (configuration not stated)	-9.257%	4.027%	12.89% & 26.48%
CCc1nc(C)sc1CN1CC[C@@](O)(CCOC)[C@H](C)C1	0.508%	0%	2.67%
COc1cc(CNCc2c(C)nn(C)c2N(C)C)ccc1OCCO	-9.144%	4.386%	6.868%
CC(C)C(O)CNC(=O)Nc1ccc(F)c(Cl)c1 (configuration not stated)	-19.21%	9.244%	-3.74%
COc1c(C)cnc(CN2CCOC(Cn3cncn3)C2)c1C (configuration not stated)	-25.19%	16.95%	2.887%
CCCc1nnc(C(=O)N(C)Cc2cnc3ccccn23)o1	-8.663%	9.836%	-0.2558%
COc1ccccc1OCCCc1cc(C#N)ccn1	-2.287%	21.92%	-7.579%
O=C(C1CCCO1)N1CCC2(CC1)COCCN2CC1CC1 (configuration not stated)	-15.79%	19.27%	-3.529%
CCn1nccc1S(=O)(=O)N1CCC2(CCCN(C(C)C)C2=O)C1 (configuration not stated)	-7.576%	11.29%	-0.123%
Cc1ccc(CNC(=O)Nc2nncs2)cn1	-6.594%	9.615%	-1.434%
CS(=O)(=O)N[C@@H]1CCN(Cc2cccnc2)[C@H]1Cc1cccnc1	-51.46%	-23.53%	-3.046%
Cc1cc(C)n(CC(C)CNC(=O)[C@@H](C)NC(=O)OC(C)(C)C)n1 (some centres not stated)	-35.02%	20%	4.453%
CN(Cc1ccccc1)CC1CC2(CO1)CN(Cc1cnn(C)c1)C2 (configuration not stated)	-42.73%	13.27%	-23.79%
O=C(c1cccc(CNS(=O)(=O)c2ccc(F)cc2)c1)N1CCCC1	-0.589%	13.68%	-9.651%
O=C(NCc1ccccn1)NC1CCCN(c2ncccn2)C1 (configuration not stated)	-11.79%	13.21%	6.947%
Cc1ccc(NC2COC3(CCN(CC(C)C)CC3)C2)nn1 (configuration not stated)	-13.35%	17.09%	-
Cc1nc(NCC2CC2)nc2c1COCC21CCN(C(=O)C(C)(C)C)C1 (configuration not stated)	4.309%	4%	4%

For reference, 4 entries once more:

compound,Pks13 thioesterase,LiHisRS,CoaBC
Fc1ccc2[nH]c([C@H]3CCN(C4CCOCC4)C3)nc2c1,-2.592%,22.22%,5.192%
Cc1cc(C)n(CC(C)CNC(=O)[C@@H](C)NC(=O)OC(C)(C)C)n1 (some centres not stated),-35.02%,20%,4.453%
Cc1nc2n(n1)CC(NCc1nc(-c3cccs3)no1)CC2 (configuration not stated),-33.74%,29.58%,-
CS(=O)(=O)N[C@@H]1CCN(Cc2cccnc2)[C@H]1Cc1cccnc1,-51.46%,-23.53%,-3.046%